# Experimental data published in PubChem BioAssay AID504467 (National Center for Advancing Translational Sciences (NCATS), 2011).
# About 7,700 (2.3%) of roughly 330,000 compounds were called active. The shares of active, inactive and inconclusive entries below differ from those in the screen. Calls come from the whole dose curve; as a rule, active = well fitted inhibition curve with a large enough effect; inconclusive = small, poorly fitted or top-dose-only effect, or effect the other way; inactive = flat fitted curve, though single readings scatter. A potency beside an inconclusive call is a rough fit, not a confirmed value.
# Experiment: qHTS screen for small molecules that inhibit ELG1-dependent DNA repair in human embryonic kidney (HEK293T) cells expressing luciferase-tagged ELG1; note: nearly all actives have a fitted effect of over 55% in size
# Conditions: HEK293T ELG1-luciferase reporter, luminescence, 16 h, DNA damage induced by 5-fluorouridine; activity change, negative = inhibition: at 46.1 µM (top of the series)
# Outline: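 HEK293T cells expressing luciferase-tagged ELG1 (2,000/well) received 5-Fluorouridine plus compound or DMSO for 16 hr at 37 °C. Luciferase was read by ONE-Glo luminescence after 30 min at room temperature.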
# % is set by controls: 0 for no effect and ±100 for the full control effect; potency is the fitted concentration of half-maximal effect.
SMILES,Potency,"activity change, negative = inhibition"
c1ccc(COc2ccc(Oc3nc(N4CCCCC4)nc(N4CCOCC4)n3)nn2)cc1,"inconclusive: 32.6 µM [inhibitor, single point]",
COc1ccc(NC(=O)CC2Oc3ccccc3NC2=O)cc1 (stereo not drawn),"inconclusive: 1.16 µM [activator, single point]",
CCC(C)N(C(=O)CSc1nnc(NC(C)C)s1)C1CCS(=O)(=O)C1 (stereo not drawn),,inactive: 22%
Cc1cccc(Nc2nc(N)c([N+](=O)[O-])c(N3CC(C)OC(C)C3)n2)c1 (stereo not drawn),"inconclusive: 25.9 µM [inhibitor, single point]",
CCOc1ccccc1N1CCN(C(=O)c2cc3c(C)cc(C)cc3[nH]2)CC1,,inactive: -2.14%
O=C(Nc1ccc2[nH]c(=S)sc2c1)Nc1ccccc1F,"inconclusive: 0.326 µM [activator, full curve]",
Cc1nn(CC(=O)OCC(=O)Nc2cccc(S(N)(=O)=O)c2)c(C)c1[N+](=O)[O-],"inconclusive: 16.4 µM [activator, single point]",
Clc1ccc2c(NNc3ccccc3Cl)ccnc2c1,,inactive: 19.5%
Cn1c(=O)oc2cc(S(=O)(=O)Nc3ccc(O)cc3)ccc21,,inactive: -4.85%
CC(=O)N1c2ccc(S(=O)(=O)N3CCC(C(=O)NC4CCCCC4)CC3)cc2CC1C (stereo not drawn),,inactive: 0.619%
O=c1cc(NCc2ccc3c(c2)OCO3)[nH]c(=O)n1-c1ccc(Cl)cc1,"inconclusive: 20.6 µM [activator, single point]",
CCCCN1/C(=C/c2cccc[n+]2C)Sc2cc(NC(C)=O)ccc21,,inactive: 11.4%
O=C(CSc1n[nH]c(-c2ccccc2)n1)N1CCOCC1,"inconclusive: 20.6 µM [activator, single point]",
CCN(CC)C(=O)c1ccc(COc2ccccc2Cl)cc1,,inactive: -2.07%
CCOc1ccc(OCCC(=O)N2CCN(S(=O)(=O)c3ccc(OCC)cc3)CC2)cc1,,inactive: -18.1%
Cc1cc(C)n(C(C)CC(=O)N2CCc3ccccc32)n1 (stereo not drawn),"inconclusive: 7.3 µM [activator, partial curve, poor fit]",
Nc1c(C(=O)OCC(=O)Nc2ccc(Cl)cc2[N+](=O)[O-])[nH]c(=O)[nH]c1=O,,inactive: -3.81%
Cc1cc(C)nc(N2CCN(S(=O)(=O)c3ccc(F)cc3)CC2)n1,"inconclusive: 20.6 µM [inhibitor, partial curve]",
CC1CCN(c2c([N+](=O)[O-])c(=O)oc3ccccc23)CC1,,inactive: 0.184%
O=C(NCCc1nc2ccccc2[nH]1)c1cccc(Br)c1,,inactive: 5.07%
O=C1CN(C(=O)OCc2ccccc2)c2ccccc2N1,"inconclusive: 13 µM [activator, partial curve]",
CCCCNCC1C(Oc2ccc(Cl)cc2)C(=O)N1c1ccccc1C (stereo not drawn),"inconclusive: 13 µM [inhibitor, partial curve]",
CCN(CC)S(=O)(=O)c1ccc2oc(C(=O)NCCN3CCOCC3)c(C)c2c1,,inactive: -3.48%
COc1ccc(S(=O)(=O)NC(CC(C)C)C(=O)NC(C)c2cccs2)cc1 (stereo not drawn),,inactive: 2.51%

SMILES,Potency,"activity change, negative = inhibition"
CC1CC(C)CN(C(=O)c2cc3c(=O)n4ccccc4nc3s2)C1 (stereo not drawn),"inconclusive: 0.0058 µM [activator, full curve, poor fit]",
COc1ccc(C(=O)N/N=c2\oc3ccccc3cc2C(=O)NCc2ccccc2)cc1,active: 10.3 µM,
NS(=O)(=O)c1ccc(CCNC(=O)c2ccc(Br)s2)cc1,,inactive: -7.03%
O=C(NC1CCCCC1)c1ccc(-c2ccc(Cl)cc2)o1,"inconclusive: 9.2 µM [activator, partial curve]",
Cc1[nH]c(=S)c(C#N)c2c1CCCC2,,inactive: -10.4%
COc1cc(CNCc2ccccn2)ccc1OCc1ccccc1Cl,,inactive: -16.8%
O=C(O)c1cc(N/N=C2/CC(c3ccccc3)Oc3ccccc32)ccc1Cl (stereo not drawn),"inconclusive: 16.4 µM [activator, single point]",
CCOC(=O)c1[nH]c2ccc(OC)cc2c1NC(=O)c1ccc(OC)c(OC)c1,"inconclusive: 10.3 µM [inhibitor, partial curve]",
CCc1c(C(=O)N/N=C/c2sccc2C)nnn1-c1nonc1N,"inconclusive: 20.6 µM [activator, single point]",
O=C(NC1=NCCS1)c1ccc(N2CCCC2=O)cc1,"inconclusive: 18.3 µM [activator, single point]",
Cc1cc(C(F)(F)F)nn1C(=O)c1cccnc1Cl,"inconclusive: 16.4 µM [activator, partial curve, poor fit]",
Cc1ccc(CNC(=O)c2c(-c3ccccc3Cl)noc2C)cc1,,inactive: -15.6%
CCOc1ccc(C)cc1S(=O)(=O)n1ccnc1,,inactive: 13.7%
CCCc1cc(C(=O)Cc2ccc(C(=O)OCC)o2)c(O)cc1O,"inconclusive: 20.6 µM [inhibitor, single point]",
O=C(/C(=C(\[O-])c1ccccc1)[n+]1ccc2ccccc2c1)c1ccc(Cl)cc1,"inconclusive: 29.1 µM [activator, single point]",
CCn1c(Cc2ccc(OC)cc2)nnc1SCC(=O)Nc1cccc(C(=O)OC)c1,"inconclusive: 23.1 µM [inhibitor, partial curve, poor fit]",
O=C1C2CCCCC2C(=O)N1c1ccc(S(=O)(=O)Nc2ncccn2)cc1 (stereo not drawn),,inactive: -24.4%
Cc1ccc(-c2ccc(/C=N\NC(=O)c3cc4c(ccc5ccccc54)o3)o2)cc1[N+](=O)[O-],"inconclusive: 4.11 µM [inhibitor, single point]",
O=C(Nc1ccc(Cl)c(S(=O)(=O)N2CCCC2)c1)c1nn(CCO)c(=O)c2ccccc12,"inconclusive: 29.1 µM [inhibitor, single point]",
C/C(=N\NC(=O)c1ccc(Cl)cc1)c1cccnc1,"inconclusive: 20.6 µM [activator, partial curve]",
Cc1ccc(Oc2ccc(OCC(=O)Nc3ccncc3)cc2)cc1,"inconclusive: 0.116 µM [inhibitor, full curve, poor fit]",
Cc1ccc(S(=O)(=O)NCCC(=O)NCCCSc2ccccc2)cc1,,inactive: -17.9%
O=c1cc(-c2ccccc2)c2c(O)cc(O)cc2o1,"inconclusive: 12.6 µM [inhibitor, single point]",
CSc1nsc(SCC(=O)Nc2nc3ccccc3s2)n1,"inconclusive: 16.4 µM [activator, single point]",

# Laid out differently: 2 of the compounds above.
SMILES	Potency	activity change, negative = inhibition
O=C(NC1=NCCS1)c1ccc(N2CCCC2=O)cc1	inconclusive: 18.3 µM [activator, single point]	
Cc1cc(C(F)(F)F)nn1C(=O)c1cccnc1Cl	inconclusive: 16.4 µM [activator, partial curve, poor fit]	
